Data as given in US20090053745A1.
No constants are given. Whether binding was seen depends on the method and setting. Binding seen in cells or lysates may run through a third protein. Some binding calls cover weakened binding; strength is not graded here. Where a sequence is shown, tags or fusion partners need not be part of it.

What was measured:
GST-cypin [1] = biological target: T1, GST-cypin (UniProt Q9WTT6); assay: competition co-immunoprecipitation (legend of FIG. 7)
T1 sequence (looked up): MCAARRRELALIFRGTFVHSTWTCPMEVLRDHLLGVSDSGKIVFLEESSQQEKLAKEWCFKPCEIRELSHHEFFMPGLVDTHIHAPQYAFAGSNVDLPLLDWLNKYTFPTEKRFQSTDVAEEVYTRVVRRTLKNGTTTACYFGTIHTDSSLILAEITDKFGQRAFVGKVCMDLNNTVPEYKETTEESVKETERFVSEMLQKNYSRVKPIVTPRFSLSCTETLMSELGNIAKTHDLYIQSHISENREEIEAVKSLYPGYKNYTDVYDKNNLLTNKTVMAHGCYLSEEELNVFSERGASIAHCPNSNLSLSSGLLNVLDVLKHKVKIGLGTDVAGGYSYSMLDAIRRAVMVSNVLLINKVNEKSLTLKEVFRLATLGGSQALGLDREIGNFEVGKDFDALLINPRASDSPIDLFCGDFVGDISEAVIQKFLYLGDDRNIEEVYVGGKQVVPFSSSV

GST-cypin [2] = biological target: T1, GST-cypin; assay: competition co-immunoprecipitation with anti-tubulin antibody, purified proteins
GST-cypin [3] = biological target: T1, GST-cypin; assay: competition co-immunoprecipitation of purified cypin (2 µM) and tubulin heterodimers (7 µM) with GST-Snapin added; displaced ligand: tubulin heterodimers; the strip is labelled α-Tubulin on the sheet (the text: IP with anti-tubulin, blot for cypin)

binding (GST-cypin [1]): binds | binding (GST-cypin [2]): binds | binding (GST-cypin [3]): binds
B1: GST-snapin (entire 136 amino acids) (protein, not shown: a dimerising Fc or GST)
chain: MAGAGSAAVSGAGTPVAGPTGRDLFAEGLLEFLRPAVQQLDSHVHAVRESQVELREQIDNLATELCRINEDQKVALDLDPYVKKLLNARRRVVLVNNILQNAQERLRRLNHSVAKETARRRAMLDSGIYPPGSPGK
